# Measurements from publication PMC5996148.
# This is one part of the list.
# Experiments:
# Experiment in all cases: protein microarray (ProtoArray v5.0), streptavidin-Alexa Fluor 647
# Settings in all cases: 3'-biotin; 20 mM Tris (pH 7.5), 5 mM MgCl2, 100 mM KCl, 0.1% Tween-20, A/T-rich and random oligonucleotide blockers; temperature not stated; high values mean tight binding
# [1] = tested on: CDK5 regulatory subunit-associated protein 3 (human)
# [2] = tested on: CDK6 (human)
# [3] = tested on: CDKN2B (human)
# [4] = tested on: CDKN2D (human)
# [5] = tested on: CEACAM6 (human)
# [6] = tested on: CEECAM1 (human)
# [7] = tested on: CENTB2 (human)
# [8] = tested on: CENTD2 (human)
# [9] = tested on: CEP290 (human)
# [10] = tested on: CFHR2 (human)
sequence,measurement,setting,value
GGGAGGCTGAGGCAGG [G4-1 biotinylated (PQS2)],binding signal,[1],-0.379 z-score
same,binding signal,[2],-0.346 z-score
same,binding signal,[3],-0.319 z-score
same,binding signal,[4],-0.36 z-score
same,binding signal,[5],-0.353 z-score
same,binding signal,[6],-0.283 z-score
same,binding signal,[7],-0.246 z-score
same,binding signal,[8],-0.346 z-score
same,binding signal,[9],-0.343 z-score
same,binding signal,[10],-0.286 z-score

# Exported with bars between the fields: part of the list above
sequence | measurement | setting | value
GGGAGGCTGAGGCAGG [G4-1 biotinylated (PQS2)] | binding signal | [1] | -0.379 z-score
same | binding signal | [7] | -0.246 z-score
